Assay results reported in the supplement of paper PMC6078165.

Tested on: HCC1143
Test: relative JC-1 red fluorescence (viability) vs pre-drug, coculture with fibroblast (fraction); higher = more viable cancer cells
Experimental: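 JC-1 labelled TNBC cells cocultured 1:1 (1,500 cells each) with CellTrace Violet stained primary or stromal fibroblasts in 384-well plates in FluoroBrite medium, treated with one of 42 anticancer drugs at 0.1, 1, 10 or 100 uM. JC-1 red fluorescence (mitochondrial integrity in cancer cells only) was read by plate reader every 8 h for 72 h. Values are normalised to each well's pre-drug value. The stock of one drug was tenfold lower, so its dose labels may be too high.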

COc1cc([C@@H]2c3cc4c(cc3[C@@H](O[C@@H]3O[C@@H]5CO[C@@H](c6cccs6)O[C@H]5[C@H](O)[C@H]3O)[C@H]3COC(=O)[C@H]23)OCO4)cc(OC)c1O [Teniposide]
relative JC-1 red fluorescence
Conditions	8 h	16 h	24 h	32 h	40 h	48 h	56 h	64 h	72 h
0.1 µM, coculture fibroblast: C12385	0.8431	0.797	0.73	0.66	0.599	0.563	0.529	0.493	0.489
0.1 µM, coculture fibroblast: H6013	0.76	0.712	0.67	0.653	0.587	0.571	0.538	0.517	0.481
0.1 µM, coculture fibroblast: H6019	0.836	0.767	0.743	0.686	0.645	0.637	0.588	0.55	0.513
0.1 µM, coculture fibroblast: H6076	0.771	0.7708	0.7252	0.668	0.625	0.597	0.566	0.5453	0.548
0.1 µM, coculture fibroblast: H6231	0.801	0.785	0.752	0.704	0.673	0.647	0.609	0.574	0.56
0.1 µM, coculture fibroblast: HADF	0.727	0.683	0.651	0.661	0.57	0.548	0.52	0.497	0.463
0.1 µM, coculture fibroblast: HCFa	0.766	0.675	0.63	0.595	0.513	0.476	0.431	0.403	0.372
0.1 µM, coculture fibroblast: HCPF	0.781	0.735	0.71	0.701	0.645	0.635	0.609	0.588	0.588
0.1 µM, coculture fibroblast: HHSteC	0.8014	0.74634	0.712	0.6724	0.617	0.591	0.547	0.528	0.473
0.1 µM, coculture fibroblast: HMF	0.802	0.798	0.744	0.689	0.65	0.628	0.582	0.562	0.57
0.1 µM, coculture fibroblast: HPFa	0.869	0.809	0.7842	0.694	0.6449	0.618	0.55	0.508	0.47
0.1 µM, coculture fibroblast: HUF	0.8573	0.796	0.742	0.673	0.609	0.578	0.538	0.506	0.488
0.1 µM, coculture fibroblast: Hs5	0.862	0.896	0.849	0.804	0.75	0.713	0.68	0.645	0.632
0.1 µM, coculture fibroblast: Hs27A	0.6967	0.634	0.595	0.607	0.487	0.485	0.44	0.4204	0.3796
0.1 µM, coculture fibroblast: Hs343T	0.7899	0.798	0.753	0.702	0.6644	0.639	0.601	0.576	0.564
0.1 µM, coculture fibroblast: WS1	0.7982	0.7168	0.6514	0.567	0.511	0.46662	0.417	0.379	0.358
1 µM, coculture fibroblast: C12385	0.828	0.761	0.705	0.647	0.585	0.554	0.507	0.457	0.435
1 µM, coculture fibroblast: H6013	0.785	0.725	0.698	0.68	0.632	0.634	0.603	0.594	0.539
1 µM, coculture fibroblast: H6019	0.821	0.731	0.68	0.617	0.57	0.537	0.491	0.453	0.421
1 µM, coculture fibroblast: H6076	0.7992	0.775	0.7317	0.692	0.642	0.621	0.586	0.579	0.582
1 µM, coculture fibroblast: H6231	0.8085	0.779	0.718	0.65	0.629	0.594	0.555	0.515	0.509
1 µM, coculture fibroblast: HADF	0.782	0.732	0.699	0.693	0.6	0.578	0.537	0.511	0.473
1 µM, coculture fibroblast: HCFa	0.796	0.718	0.675	0.654	0.577	0.558	0.511	0.48	0.434
1 µM, coculture fibroblast: HCPF	0.81	0.805	0.773	0.694	0.701	0.682	0.655	0.623	0.608
1 µM, coculture fibroblast: HHSteC	0.837	0.789	0.756	0.717	0.668	0.65	0.622	0.603	0.546
1 µM, coculture fibroblast: HMF	0.804	0.8071	0.743	0.671	0.659	0.632	0.591	0.551	0.534
1 µM, coculture fibroblast: HPFa	0.877	0.796	0.782	0.691	0.646	0.617	0.555	0.521	0.488
1 µM, coculture fibroblast: HUF	0.857	0.777	0.733	0.66	0.616	0.583	0.536	0.5	0.47
1 µM, coculture fibroblast: Hs5	0.861	0.846	0.846	0.842	0.789	0.773	0.767	0.758	0.767
1 µM, coculture fibroblast: Hs27A	0.766	0.741	0.729	0.784	0.69	0.718	0.708	0.71	0.686
1 µM, coculture fibroblast: Hs343T	0.811	0.776	0.727	0.682	0.628	0.6038	0.565	0.54	0.527
1 µM, coculture fibroblast: WS1	0.8036	0.738	0.707	0.653	0.618	0.575	0.527	0.492	0.47

The reference is the same well before dosing, and untreated signal decays as well.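 Fibroblast labels name human fibroblasts: mostly primary ones from tissues such as uterus (C12385, HUF), lung (H6013), bone (Hs27A), adrenal (HADF) and skin (WS1), plus mammary HMF and breast cancer-associated Hs343T. The cancer cells are basal-like or mesenchymal-like triple-negative breast cancer lines. The paper calls a changed response a hit when it shifts by more than 3x the replicate standard deviation. The tissue of the other fibroblasts is not given here.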
